# EP2844225B1, “AVERMECTIN POUR-ON FORMULATION WITH REDUCED WITHDRAWAL TIME” (Norbrook Laboratories Limited, priority 2012, dated 2013)
# Several values for one entry are separate records, joined by “and”; a condition that tells them apart may be missing. Equal values may be shown once. The source gives many values for each of these; only a part stands here.
# Experiment: Plasma levels of eprinomectin in cattle after topical pour-on administration (HPLC with fluorescence detection)
# Settings: 0.5 mg/kg bodyweight, individual animals
# Method: Twenty beef cattle of mixed gender and aged approximately between 10-20 months at the time of selection were used to determine the levels of eprinomectin in plasma following topical administration of the composition set forth in Table 1 below at a dose rate of 0.5mg/kg of eprinomectin.
# The composition was administered along the midline of the back in a narrow strip between the withers and the tailhead using 60 ml syringes graduated to 1 ml. […] Blood samples were collected from each animal by venipuncture from the jugular vein using suitably labelled 9ml heparinised vacutainers. Following collection, samples were placed on ice protected from light under black cover prior to centrifugation. After centrifugation at 4500 revolutions per minute (RPM) for 5 minutes, the plasma was subsampled into 3 amber cryovials (-1ml plasma/cryovial). Plasma samples were stored at <-20°C until assayed. All samples were assayed for the determination of eprinomectin content, measured as eprinomectin B 1 a (hereafter referred to as eprinomectin) by HPLC.
compound,measurement,setting,value
CC[C@H](C)[C@H]1O[C@]2(C=C[C@@H]1C)C[C@@H]1C[C@@H](C/C=C(\C)[C@@H](O[C@H]3C[C@H](OC)[C@@H](O[C@H]4C[C@H](OC)[C@H](NC(C)=O)[C@H](C)O4)[C@H](C)O3)[C@@H](C)/C=C/C=C3\CO[C@@H]4[C@H](O)C(C)=C[C@@H](C(=O)O1)[C@]34O)O2 [eprinomectin],Plasma concentration of eprinomectin,"time point 24 hrs, 1440 min",9.06 ng/mL and 13.3 ng/mL and 7.29 ng/mL and 15.6 ng/mL and 13.6 ng/mL and 12.7 ng/mL and 20.1 ng/mL and 19.4 ng/mL and 18.7 ng/mL and 9.63 ng/mL and 16.5 ng/mL and 24.6 ng/mL and 14.1 ng/mL
same,Plasma concentration of eprinomectin,"time point 48 hrs, 2880 min",11.1 ng/mL and 43.0 ng/mL and 28.9 ng/mL and 26.6 ng/mL and 17.8 ng/mL and 39.4 ng/mL and 30.0 ng/mL and 32.0 ng/mL and 23.3 ng/mL and 39.8 ng/mL and 53.8 ng/mL and 37.6 ng/mL
same,Plasma concentration of eprinomectin,"time point 72 hrs, 4320 min",22.8 ng/ml (2×) and 47.4 ng/ml and 35.4 ng/ml and 37.0 ng/ml and 23.8 ng/ml and 54.6 ng/ml and 41.1 ng/ml and 35.9 ng/ml and 32.1 ng/ml and 51.1 ng/ml and 73.9 ng/ml and 52.8 ng/ml
same,Plasma concentration of eprinomectin,"time point 96 hrs, 5760 min",15.5 ng/mL and 25.7 ng/mL and 53.3 ng/mL and 23.3 ng/mL and 40.7 ng/mL and 37.2 ng/mL and 24.4 ng/mL and 63.5 ng/mL and 60.4 ng/mL and 32.1 ng/mL and 34.9 ng/mL and 53.2 ng/mL and 69.2 ng/mL and 72.2 ng/mL
same,Plasma concentration of eprinomectin,"time point 120 hrs, 7200 min",18.5 ng/ml and 17.9 ng/ml and 56.5 ng/ml and 24.5 ng/ml (2×) and 46.8 ng/ml and 38.6 ng/ml and 53.4 ng/ml (2×) and 52.1 ng/ml and 25.1 ng/ml and 27.9 ng/ml and 64.2 ng/ml and 63.0 ng/ml
same,Plasma concentration of eprinomectin,"time point 144 hrs, 8640 min",20.8 ng/mL and 22.3 ng/mL and 53.7 ng/mL and 21.2 ng/mL and 37.6 ng/mL and 30.3 ng/mL and 22.6 ng/mL and 47.1 ng/mL and 46.5 ng/mL and 15.4 ng/mL and 26.0 ng/mL and 49.9 ng/mL and 50.0 ng/mL and 34.5 ng/mL
same,Plasma concentration of eprinomectin,"time point 192 hrs, 11520 min",18.8 ng/mL and 15.7 ng/mL and 43.6 ng/mL and 14.1 ng/mL and 20.8 ng/mL and 19.3 ng/mL and 18.9 ng/mL and 28.0 ng/mL and 25.5 ng/mL and 8.63 ng/mL and 15.1 ng/mL and 29.6 ng/mL and 28.2 ng/mL and 17.4 ng/mL
same,Plasma concentration of eprinomectin,"time point 216 hrs, 12960 min",17.4 ng/mL and 33.1 ng/mL and 14.9 ng/mL and 23.5 ng/mL and 19.8 ng/mL and 18.2 ng/mL and 22.2 ng/mL and 18.0 ng/mL and 6.34 ng/mL and 13.3 ng/mL and 21.0 ng/mL and 21.6 ng/mL and 13.1 ng/mL
same,Plasma concentration of eprinomectin,"time point 240 hrs, 14400 min",16.6 ng/ml and 27.8 ng/ml and 8.37 ng/ml and 18.5 ng/ml and 13.7 ng/ml and 15.2 ng/ml (3×) and 11.5 ng/ml and 4.09 ng/ml and 9.22 ng/ml and 17.4 ng/ml
same,Plasma concentration of eprinomectin,"time point 312 hrs, 18720 min",5.95 ng/mL and 10.9 ng/mL and 4.10 ng/mL and 7.60 ng/mL and 5.34 ng/mL and 6.51 ng/mL and 7.51 ng/mL and 4.92 ng/mL and 2.08 ng/mL and 4.63 ng/mL and 6.64 ng/mL and 7.96 ng/mL and 4.02 ng/mL
same,Plasma concentration of eprinomectin,"time point 336 hrs, 20160 min",5.69 ng/ml (2×) and 9.42 ng/ml and 3.05 ng/ml and 3.96 ng/ml and 6.70 ng/ml and 6.80 ng/ml and 3.62 ng/ml and 1.53 ng/ml and 3.09 ng/ml and 5.35 ng/ml and 5.81 ng/ml and 3.02 ng/ml
same,Plasma concentration of eprinomectin,"time point 360 hrs, 21600 min",3.91 ng/mL and 6.58 ng/mL and 3.56 ng/mL and 4.88 ng/mL and 2.81 ng/mL and 4.44 ng/mL and 4.43 ng/mL and 2.76 ng/mL and 1.30 ng/mL and 2.34 ng/mL and 3.87 ng/mL and 4.57 ng/mL and 2.17 ng/mL
same,Plasma concentration of eprinomectin,"time point 408 hrs, 24480 min",2.59 ng/mL and 5.28 ng/mL and 2.95 ng/mL and 3.51 ng/mL and 2.20 ng/mL and 3.58 ng/mL and 2.54 ng/mL and 2.03 ng/mL and <1.00 ng/mL and 1.62 ng/mL and 2.23 ng/mL and 2.44 ng/mL and 2.41 ng/mL
